Test system: HeLa
Experiment: Antiproliferative activity against human HeLa cells after 48 hrs by MTT assay
Type: functional, cell-based

Compound: COc1cc2c(c(OC)c1OC)-c1ccc(OC)c(=O)cc1[C@@H](NC(C)=O)CC2 [COLCHICINE]
- IC50: 138 nM

From ChEMBL document CHEMBL5143557, “Synthesis and biological evaluation of 3β-O-neoglycosides of caudatin and its analogues as potential anticancer agents” (Bioorg Med Chem, 2022)
